Laboratory results as given in PubChem BioAssay AID720504 (National Center for Advancing Translational Sciences (NCATS), 2013).
Hit rate of the full screen: of about 360,000 compounds, about 10,000 (2.8%) were called active. Inconclusive means that the source gave no clear call. Such entries were picked first, then a sample of the others. The call rests on the fitted dose curve; in most records, active means well fitted inhibition curve with a large enough effect; inconclusive means small, poorly fitted or top-dose-only effect; inactive means flat fitted curve, though single readings scatter. Where the call is inconclusive, the potency comes from a doubtful curve fit.

Chains of the proteins cited; added tags and fusions are not shown.
UniProt P53350, whole entry, looked up: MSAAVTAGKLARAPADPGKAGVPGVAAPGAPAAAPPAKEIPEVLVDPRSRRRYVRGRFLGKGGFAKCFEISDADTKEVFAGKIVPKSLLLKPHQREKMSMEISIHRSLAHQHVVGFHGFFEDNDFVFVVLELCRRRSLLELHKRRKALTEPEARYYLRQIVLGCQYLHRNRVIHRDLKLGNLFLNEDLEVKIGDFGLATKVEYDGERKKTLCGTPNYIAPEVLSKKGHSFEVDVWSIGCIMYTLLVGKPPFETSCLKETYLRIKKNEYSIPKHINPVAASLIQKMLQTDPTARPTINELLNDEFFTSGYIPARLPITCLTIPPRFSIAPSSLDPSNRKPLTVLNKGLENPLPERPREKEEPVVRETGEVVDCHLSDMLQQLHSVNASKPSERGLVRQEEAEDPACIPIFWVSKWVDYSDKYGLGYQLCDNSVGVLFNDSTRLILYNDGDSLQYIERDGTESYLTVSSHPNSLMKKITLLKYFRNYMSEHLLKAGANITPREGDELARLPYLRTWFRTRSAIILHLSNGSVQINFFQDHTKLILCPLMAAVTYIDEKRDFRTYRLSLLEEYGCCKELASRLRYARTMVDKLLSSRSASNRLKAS

target: Serine/threonine-protein kinase PLK1 (Homo sapiens) (UniProt P53350); experiment: qHTS for Inhibitors of PLK1-PDB (polo-like kinase 1 - polo-box domain): Primary Screen; details: Plk1 PBD binding of FITC phosphopeptide, fluorescence polarization; further: nearly all actives have a fitted effect of over 65% in size; on max response, negative = inhibition: series mostly up to about 57 µM
On the % scale 0 is the no-effect control and ±100 the full control effect; potency means the concentration at half of the fitted maximal effect.

| SMILES | Potency | max response, negative = inhibition |
| --- | --- | --- |
| O=C(CNC(=O)/C=C/c1ccco1)N=Nc1c(O)[nH]c2ccccc12 | inconclusive: 4.23 µM [inhibitor, partial curve] | – |
| Cc1ccc(-c2noc(CCC(=O)Nc3ccc4c(c3)OCO4)n2)cc1 | inconclusive: 29.9 µM [inhibitor, single point] | – |
| CCOc1ccc(N2C(=O)CC(NCC#N)C2=O)cc1 (stereo unspecified) | inconclusive: 33.6 µM [inhibitor, partial curve] | – |
| CC(=O)Nc1cccc(NC(=O)C2CCCN2C(=O)Nc2ccc(Cl)cc2)c1 (stereo unspecified) | inconclusive: 29.9 µM [inhibitor, partial curve] | – |
| O=[N+]([O-])c1ccccc1COc1ccc(Cl)c2cccnc12 | active: 23.8 µM | – |
| O=C(C1CC=CCC1)N1CCN(C(=O)C2CC=CCC2)CC1 (stereo unspecified) | active: 29.9 µM | – |
| CCc1nnc(NS(=O)(=O)c2ccc(NC(=O)/C=C/c3ccccc3Cl)cc2)s1 | inconclusive: 21.2 µM [inhibitor, single point] | – |
| N#C/C(=C\c1ccccc1[N+](=O)[O-])C(=O)Nc1ccc(S(N)(=O)=O)cc1 | inconclusive: 18.9 µM [inhibitor, partial curve] | – |
| Cc1cc(C)c2ccc(=S)[nH]c2n1 | active: 15 µM | – |
| Cc1ccccc1NC(=O)CN1C(=O)COc2ccc(Cl)cc21 | active: 23.8 µM | – |
| COc1cccc(NC(=O)COC(=O)c2sccc2C)c1 | – | inactive: -1.58% |
| O=C(CN1C(=O)CCSc2ccc(S(=O)(=O)N3CCOCC3)cc21)Nc1cccc(F)c1 | – | inconclusive: -7.28% [inhibitor] |
| NS(=O)(=O)c1ccc(CNc2ncnc3sccc23)cc1 | – | inactive: 1.87% |
| NC(=O)c1cc(S(=O)(=O)N2CCOCC2)ccc1Sc1ccccc1N | active: 15 µM | – |
| COc1ccc(CCN(C)C(=O)C2CCN(Cc3ccccc3)CC2)cc1OC | – | inactive: -3.72% |
| CCCC(NC(=O)Cc1c(C)c2c(cc(C)c3c(C)coc32)oc1=O)C(=O)O (stereo unspecified) | – | inactive: -8.89% |
| O=C(Nc1ccc(NC(=O)c2cccs2)cn1)c1ccccc1 | inconclusive: 6.7 µM [inhibitor, single point] | – |
| Cc1cc(C(=O)COc2cccc3cccnc23)c(C)n1C | – | inactive: -27.3% |
| C=CCSc1nc2c(sc3nc(C)cc(C)c32)c(=O)[nH]1 | inconclusive: 16.8 µM [inhibitor, partial curve] | – |
| Cc1cccc(N2C(=O)NC3(CCCCC3)C2=O)c1 | – | inactive: 0.713% |
| CCC(C)Sc1nc2c(c(=O)[nH]c(=O)n2C)n1Cc1ccccc1Cl (stereo unspecified) | inconclusive: 23.8 µM [inhibitor, single point] | – |
| CCOC(=O)c1sc(NC(=S)NC(=O)c2ccco2)nc1C | – | inactive: -23% |
| COC(=O)c1cccc(-c2ccc(C(c3c(C)[nH][nH]c3=O)c3c(C)[nH][nH]c3=O)o2)c1 | active: 23.8 µM | – |
| CCc1ccc(-n2nc3cc(C)c(N)cc3n2)cc1 | inconclusive: 5.32 µM [inhibitor, partial curve] | – |

| SMILES | Potency | max response, negative = inhibition |
| --- | --- | --- |
| O=C(CCNc1ccc(Br)cc1)c1cccc([N+](=O)[O-])c1 | inconclusive: 26.7 µM [inhibitor, partial curve] | – |
| Cc1cccc(N2CCN(C(=O)c3ccccc3NC(=O)C3=CSCCO3)CC2C)c1 (stereo unspecified) | active: 23.8 µM | – |
| Nc1ccc2nc(SCC(=O)N3CCN(c4ccccc4)CC3)sc2c1 | – | inactive: -2.44% |
| CCOC(=O)c1nn(-c2ccc(F)cc2)c(=O)c2c(N)scc12 | inconclusive: 23.8 µM [inhibitor, single point] | – |
| CCOc1cc(C(=O)NCc2ccco2)cc(OCC)c1OCC | inconclusive: 26.7 µM [inhibitor, single point] | – |
| Nc1nc(NC(=O)c2ccc(F)cc2)ns1 | active: 29.9 µM | – |
| COC(=O)c1ccc(N2C(=O)CC(N3CCC(O)(c4ccc(Br)cc4)CC3)C2=O)cc1 (stereo unspecified) | – | inactive: 0.48% |
| N#Cc1ccccc1Cn1c(=O)n(Cc2ccc(C(=O)NCc3ccco3)cc2)c(=O)c2sccc21 | – | inactive: -7.68% |
| CC(C)(C)NC(=O)Nc1ccc(Br)cc1 | inconclusive: 16.8 µM [inhibitor, partial curve] | – |
| Cc1ccc([C@H]2C[C@H](n3cc(C4CC4)nn3)[C@@H](O)CN2Cc2cccs2)cc1 | – | inactive: 2.95% |
| CCCCOc1ccc(NC(=O)CSc2cccc3cccnc23)cc1 | inconclusive: 6.7 µM [inhibitor, partial curve] | – |
| O=C(CSc1nc2cc(Cl)ccc2s1)c1cc2ccccc2o1 | – | inconclusive: -8.4% [inhibitor] |
| COC(=O)c1scc(C)c1S(=O)(=O)Nc1ccc(C)cc1 | inconclusive: 29.9 µM [inhibitor, partial curve] | – |
| Cc1cc(/C=C2/SC(=S)N(c3ccc([N+](=O)[O-])cc3)C2=O)c(C)n1-c1cccnc1 | – | inactive: -20.9% |
| O=C(COC(=O)CCSc1ccccc1)NCc1ccccc1Cl | inconclusive: 26.7 µM [inhibitor, single point] | – |
| Nc1ccccc1SCc1ccccc1Cl | active: 15 µM | – |
| CCOc1cccc(NC(=O)/C(C#N)=C\c2cccnc2)c1 | active: 18.9 µM | – |
| O=C(COc1ccc2ccccc2c1)Nc1ccc(Cc2ccncc2)cc1 | inconclusive: 37.7 µM [inhibitor, single point] | – |
| COc1cc(C(=O)ON=C2C=C(C)C(=O)C(C)=C2)cc(OC)c1OC | inconclusive: 10.6 µM [inhibitor, partial curve] | – |
| Cc1nn(Cc2ccc(Cl)c(Cl)c2)c(C)c1NC(=O)c1sc2ccccc2c1Cl | – | inactive: 2.64% |
| O=C(CN1C(=O)S/C(=C\c2ccccc2F)C1=O)NCCCn1ccnc1 | inconclusive: 21.2 µM [inhibitor, partial curve] | – |
| CC(=O)c1cn(Cc2ccccc2)c(=O)n(Cc2ccc(F)cc2)c1=O | inconclusive: 23.8 µM [inhibitor, single point] | – |
| CCS(=O)(=O)C1=NSC2=NC(=O)/C(=C\c3ccc(OC(=O)c4ccco4)c(OC)c3)C(=N)N21 | inconclusive: 33.6 µM [inhibitor, partial curve] | – |
| NC(=O)c1c(NC(=O)c2cc3ccccc3o2)sc2c1CCC2 | inconclusive: 29.9 µM [inhibitor, partial curve] | – |

| SMILES | Potency | max response, negative = inhibition |
| --- | --- | --- |
| CN(C)CCCNc1nc(-c2ccccc2)c2c(c1C#N)CC(C)(C)OC2 | active: 23.8 µM | – |
| FC(F)(F)c1cccc(NC(=S)NNC(=S)NCc2ccccc2)c1 | inconclusive: 29.9 µM [inhibitor, partial curve] | – |
| CCC(CC)c1nnc(NC(=O)CS(=O)(=O)c2ccccc2)s1 | active: 9.47 µM | – |
| Cc1cccc(-n2cc(-c3ccccc3)c3c(=O)[nH]cnc32)c1 | inconclusive: 26.7 µM [inhibitor, single point] | – |
| O=C(O)c1cccc(N2C(=O)/C(=C/c3ccc([N+](=O)[O-])cc3)C=C2c2ccccc2)c1 | inconclusive: 26.7 µM [inhibitor, single point] | – |
| NC(=O)C1(NC(=O)[C@@H]2CC3(CC(c4cccc(NC(=O)c5cc([N+](=O)[O-])cc([N+](=O)[O-])c5)c4)=NO3)CN2C(=O)c2ccccc2)CC1 (stereo partly specified) | inconclusive: 16.8 µM [inhibitor, partial curve, poor fit] | – |
| Cc1ccc2nc(-c3cccc(NS(C)(=O)=O)c3)cc(-c3ccccc3)c2c1 | – | inactive: 0.354% |
| CC(C)CCNC(=O)c1onc(CSc2ccc(Cl)cc2)c1C(=O)NCCC(C)C | – | inconclusive: -32.2% [inhibitor] |
| N#Cc1ccc(S(=O)(=O)NC2CC2)cc1 | inconclusive: 33.6 µM [inhibitor, partial curve, poor fit] | – |
| CCCCCCCCS(=O)C1CCS(=O)(=O)C1 (stereo unspecified) | inconclusive: 26.7 µM [inhibitor, partial curve] | – |
| CCCCN(C(=O)c1ccc(C)c(S(=O)(=O)N2CCOCC2)c1)c1c(N)n(CC(C)C)c(=O)[nH]c1=O | – | inactive: -10.6% |
| COc1ccc2nc(CCN(C)C(=O)C3CCC(=O)N(Cc4cccc(F)c4)C3)[nH]c2c1 (stereo unspecified) | inconclusive: 29.9 µM [inhibitor, partial curve] | – |
| COc1cc(NC(=O)COC(C)=O)c(C)cc1[N+](=O)[O-] | active: 26.7 µM | – |
| COC(=O)N1C(=O)[C@@](c2ccccc2)(C2CCCCC2)N1C(=O)OC | inconclusive: 26.7 µM [inhibitor, partial curve] | – |
| CCc1ccccc1NC1=NCC(=O)N1C1CCCC1 | active: 29.9 µM | – |
| Cc1ccc[n+](-c2nc([O-])sc2/C=N/Nc2ccc([N+](=O)[O-])cc2)c1 | – | inactive: -22.1% |
| Cc1snc(S(=O)(=O)/C(C#N)=N/Nc2cccc(C(F)(F)F)c2)c1C#N | inconclusive: 29.9 µM [inhibitor, single point] | – |
| CCN(CC)CCCn1c(=S)[nH]c2cc(Cl)ccc2c1=O | – | inconclusive: -30.1% [inhibitor] |
| COc1ccc(C(N)=S)c(OC)c1 | inconclusive: 29.9 µM [inhibitor, partial curve] | – |
| Cc1[nH]c2ccccc2c1C(=O)C(C)OC(=O)c1ccc(NC(=O)CC#N)cc1 (stereo unspecified) | – | inactive: 20.1% |
| CCCCN1C(=O)C(CC(=O)NCc2cccs2)CC(C(=O)N(CC)CC)=C1C (stereo unspecified) | – | inactive: -8.97% |
| CCN(CC)c1ccc(/C=C2/C(=O)ON=C2C)cc1 | inconclusive: 4.74 µM [inhibitor, partial curve] | – |
| COc1ccccc1/C=C(/NC(=O)c1ccccc1)C(=O)NCCCn1ccnc1 | inconclusive: 26.7 µM [inhibitor, single point] | – |

Grouped by structure, those above containing a CF3 group

| SMILES | Potency | max response, negative = inhibition |
| --- | --- | --- |
| FC(F)(F)c1cccc(NC(=S)NNC(=S)NCc2ccccc2)c1 | inconclusive: 29.9 µM [inhibitor, partial curve] | – |
| Cc1snc(S(=O)(=O)/C(C#N)=N/Nc2cccc(C(F)(F)F)c2)c1C#N | inconclusive: 29.9 µM [inhibitor, single point] | – |
